Experimental data from patent US20200316090A1, “TARGETED THERAPEUTICS” (MADRIGAL PHARMACEUTICALS, INC., priority 2012, published 2020).

Assay: Artificial membrane permeability assay (PAMPA)

Mass Retention (%) (5 h incubation, first table): 7.53%
Mass Retention (%) (same protocol, second table): 2.63%
SMILES: NS(=O)(=O)c1cc(C(=O)O)c(NCc2ccco2)cc1Cl [Furosemide]
